The exact form of at least one protein or probe is not confirmed.
Experiments:
[1] = test system: E3.10 (E3 ELP fused to FUS RRM and RGG domains); assay: EMSA; conditions: EMSA in 2.5% agarose, 30 min incubation, 0.5 uM ssDNA1, fusions in 1x PBS (or 50% artificial fluids) at RT, His-ELPs at RT in 37 mM citric acid/126 mM Na2HPO4 pH 6, recombinant protein, single-stranded DNA
[2] = test system: E3.10 (E3 ELP fused to FUS RRM and RGG domains); assay: coacervate partitioning, agarose gel; conditions: LLPS in buffer, artificial saliva and nasal fluid; recombinant protein; single-stranded DNA

Measured: binding result

GGGTTCCTTGCTAGCCAGAGAGCTCCCGGGCTCGACCTGGTCTAACAAGAGAGACC [ssDNA1]
binds: [1]; 1x PBS | [1]; 50% PBS/50% artificial nasopharyngeal fluid | [1]; 50% PBS/50% artificial saliva | [2]
